Where two headings read alike, the source gives them in different places. No constants are given. Whether binding was seen depends on the method and setting. In cells and extracts the contact can be indirect. Here binding means that the protein was enriched with, or labelled near, the bait; the list need not be complete. For some assays here: A no says only that the protein was not detected with the bait. For some assays here: Where a sequence is shown, tags or fusion partners need not be part of it. One block for each molecule: values may come before it.
Legend:
[1] = biological target: T1, myc-tagged BirA* fusion of IRF9 (mouse) (UniProt Q61179); assay: proximity labelling; BioID interactome in Raw 264.7 cells expressing myc-BirA* fusions of STAT1, STAT2 or IRF9, resting or IFN-β (2, 18 h) or IFN-γ (2 h); streptavidin affinity purification, shotgun LC-MS, label-free quantification against myc-BirA* or BirA*-NLS controls
T1 sequence: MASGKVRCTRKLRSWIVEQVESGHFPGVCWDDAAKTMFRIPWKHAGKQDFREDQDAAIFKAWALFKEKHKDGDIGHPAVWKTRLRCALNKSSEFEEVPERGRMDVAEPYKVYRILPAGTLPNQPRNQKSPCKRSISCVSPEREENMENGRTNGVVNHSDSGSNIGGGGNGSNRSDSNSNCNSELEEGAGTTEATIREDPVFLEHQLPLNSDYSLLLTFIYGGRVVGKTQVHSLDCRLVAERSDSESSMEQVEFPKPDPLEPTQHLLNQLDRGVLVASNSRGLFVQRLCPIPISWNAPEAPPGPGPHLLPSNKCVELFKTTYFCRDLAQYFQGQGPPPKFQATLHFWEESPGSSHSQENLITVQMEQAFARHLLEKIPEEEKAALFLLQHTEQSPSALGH

Protein sequences, listed by entry. Tags and fused reporters are not part of them.
UniProt Q9WVL2: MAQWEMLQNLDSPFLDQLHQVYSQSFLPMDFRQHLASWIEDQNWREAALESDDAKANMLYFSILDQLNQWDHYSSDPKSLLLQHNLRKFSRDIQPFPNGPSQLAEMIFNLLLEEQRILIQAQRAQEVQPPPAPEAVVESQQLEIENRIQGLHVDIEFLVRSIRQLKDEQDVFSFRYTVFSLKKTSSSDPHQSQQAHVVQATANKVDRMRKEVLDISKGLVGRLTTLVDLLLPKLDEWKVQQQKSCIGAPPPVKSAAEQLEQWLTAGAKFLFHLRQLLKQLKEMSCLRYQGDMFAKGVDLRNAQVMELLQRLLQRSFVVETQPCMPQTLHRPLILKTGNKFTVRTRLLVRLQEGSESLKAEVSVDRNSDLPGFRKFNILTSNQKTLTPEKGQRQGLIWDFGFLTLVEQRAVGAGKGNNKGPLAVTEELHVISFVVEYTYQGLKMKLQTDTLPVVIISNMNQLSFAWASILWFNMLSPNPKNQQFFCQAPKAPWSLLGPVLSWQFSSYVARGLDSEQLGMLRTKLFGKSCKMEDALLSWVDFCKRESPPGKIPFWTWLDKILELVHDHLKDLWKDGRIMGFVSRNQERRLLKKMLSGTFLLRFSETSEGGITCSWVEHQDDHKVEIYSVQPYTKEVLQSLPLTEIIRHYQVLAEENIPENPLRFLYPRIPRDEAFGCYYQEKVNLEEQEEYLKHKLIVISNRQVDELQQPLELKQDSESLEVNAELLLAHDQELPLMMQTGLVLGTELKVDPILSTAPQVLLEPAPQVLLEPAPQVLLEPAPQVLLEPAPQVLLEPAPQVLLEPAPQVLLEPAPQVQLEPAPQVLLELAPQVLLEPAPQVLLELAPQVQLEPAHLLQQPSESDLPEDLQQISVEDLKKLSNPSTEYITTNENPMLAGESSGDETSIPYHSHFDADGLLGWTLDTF
UniProt Q8CHI8: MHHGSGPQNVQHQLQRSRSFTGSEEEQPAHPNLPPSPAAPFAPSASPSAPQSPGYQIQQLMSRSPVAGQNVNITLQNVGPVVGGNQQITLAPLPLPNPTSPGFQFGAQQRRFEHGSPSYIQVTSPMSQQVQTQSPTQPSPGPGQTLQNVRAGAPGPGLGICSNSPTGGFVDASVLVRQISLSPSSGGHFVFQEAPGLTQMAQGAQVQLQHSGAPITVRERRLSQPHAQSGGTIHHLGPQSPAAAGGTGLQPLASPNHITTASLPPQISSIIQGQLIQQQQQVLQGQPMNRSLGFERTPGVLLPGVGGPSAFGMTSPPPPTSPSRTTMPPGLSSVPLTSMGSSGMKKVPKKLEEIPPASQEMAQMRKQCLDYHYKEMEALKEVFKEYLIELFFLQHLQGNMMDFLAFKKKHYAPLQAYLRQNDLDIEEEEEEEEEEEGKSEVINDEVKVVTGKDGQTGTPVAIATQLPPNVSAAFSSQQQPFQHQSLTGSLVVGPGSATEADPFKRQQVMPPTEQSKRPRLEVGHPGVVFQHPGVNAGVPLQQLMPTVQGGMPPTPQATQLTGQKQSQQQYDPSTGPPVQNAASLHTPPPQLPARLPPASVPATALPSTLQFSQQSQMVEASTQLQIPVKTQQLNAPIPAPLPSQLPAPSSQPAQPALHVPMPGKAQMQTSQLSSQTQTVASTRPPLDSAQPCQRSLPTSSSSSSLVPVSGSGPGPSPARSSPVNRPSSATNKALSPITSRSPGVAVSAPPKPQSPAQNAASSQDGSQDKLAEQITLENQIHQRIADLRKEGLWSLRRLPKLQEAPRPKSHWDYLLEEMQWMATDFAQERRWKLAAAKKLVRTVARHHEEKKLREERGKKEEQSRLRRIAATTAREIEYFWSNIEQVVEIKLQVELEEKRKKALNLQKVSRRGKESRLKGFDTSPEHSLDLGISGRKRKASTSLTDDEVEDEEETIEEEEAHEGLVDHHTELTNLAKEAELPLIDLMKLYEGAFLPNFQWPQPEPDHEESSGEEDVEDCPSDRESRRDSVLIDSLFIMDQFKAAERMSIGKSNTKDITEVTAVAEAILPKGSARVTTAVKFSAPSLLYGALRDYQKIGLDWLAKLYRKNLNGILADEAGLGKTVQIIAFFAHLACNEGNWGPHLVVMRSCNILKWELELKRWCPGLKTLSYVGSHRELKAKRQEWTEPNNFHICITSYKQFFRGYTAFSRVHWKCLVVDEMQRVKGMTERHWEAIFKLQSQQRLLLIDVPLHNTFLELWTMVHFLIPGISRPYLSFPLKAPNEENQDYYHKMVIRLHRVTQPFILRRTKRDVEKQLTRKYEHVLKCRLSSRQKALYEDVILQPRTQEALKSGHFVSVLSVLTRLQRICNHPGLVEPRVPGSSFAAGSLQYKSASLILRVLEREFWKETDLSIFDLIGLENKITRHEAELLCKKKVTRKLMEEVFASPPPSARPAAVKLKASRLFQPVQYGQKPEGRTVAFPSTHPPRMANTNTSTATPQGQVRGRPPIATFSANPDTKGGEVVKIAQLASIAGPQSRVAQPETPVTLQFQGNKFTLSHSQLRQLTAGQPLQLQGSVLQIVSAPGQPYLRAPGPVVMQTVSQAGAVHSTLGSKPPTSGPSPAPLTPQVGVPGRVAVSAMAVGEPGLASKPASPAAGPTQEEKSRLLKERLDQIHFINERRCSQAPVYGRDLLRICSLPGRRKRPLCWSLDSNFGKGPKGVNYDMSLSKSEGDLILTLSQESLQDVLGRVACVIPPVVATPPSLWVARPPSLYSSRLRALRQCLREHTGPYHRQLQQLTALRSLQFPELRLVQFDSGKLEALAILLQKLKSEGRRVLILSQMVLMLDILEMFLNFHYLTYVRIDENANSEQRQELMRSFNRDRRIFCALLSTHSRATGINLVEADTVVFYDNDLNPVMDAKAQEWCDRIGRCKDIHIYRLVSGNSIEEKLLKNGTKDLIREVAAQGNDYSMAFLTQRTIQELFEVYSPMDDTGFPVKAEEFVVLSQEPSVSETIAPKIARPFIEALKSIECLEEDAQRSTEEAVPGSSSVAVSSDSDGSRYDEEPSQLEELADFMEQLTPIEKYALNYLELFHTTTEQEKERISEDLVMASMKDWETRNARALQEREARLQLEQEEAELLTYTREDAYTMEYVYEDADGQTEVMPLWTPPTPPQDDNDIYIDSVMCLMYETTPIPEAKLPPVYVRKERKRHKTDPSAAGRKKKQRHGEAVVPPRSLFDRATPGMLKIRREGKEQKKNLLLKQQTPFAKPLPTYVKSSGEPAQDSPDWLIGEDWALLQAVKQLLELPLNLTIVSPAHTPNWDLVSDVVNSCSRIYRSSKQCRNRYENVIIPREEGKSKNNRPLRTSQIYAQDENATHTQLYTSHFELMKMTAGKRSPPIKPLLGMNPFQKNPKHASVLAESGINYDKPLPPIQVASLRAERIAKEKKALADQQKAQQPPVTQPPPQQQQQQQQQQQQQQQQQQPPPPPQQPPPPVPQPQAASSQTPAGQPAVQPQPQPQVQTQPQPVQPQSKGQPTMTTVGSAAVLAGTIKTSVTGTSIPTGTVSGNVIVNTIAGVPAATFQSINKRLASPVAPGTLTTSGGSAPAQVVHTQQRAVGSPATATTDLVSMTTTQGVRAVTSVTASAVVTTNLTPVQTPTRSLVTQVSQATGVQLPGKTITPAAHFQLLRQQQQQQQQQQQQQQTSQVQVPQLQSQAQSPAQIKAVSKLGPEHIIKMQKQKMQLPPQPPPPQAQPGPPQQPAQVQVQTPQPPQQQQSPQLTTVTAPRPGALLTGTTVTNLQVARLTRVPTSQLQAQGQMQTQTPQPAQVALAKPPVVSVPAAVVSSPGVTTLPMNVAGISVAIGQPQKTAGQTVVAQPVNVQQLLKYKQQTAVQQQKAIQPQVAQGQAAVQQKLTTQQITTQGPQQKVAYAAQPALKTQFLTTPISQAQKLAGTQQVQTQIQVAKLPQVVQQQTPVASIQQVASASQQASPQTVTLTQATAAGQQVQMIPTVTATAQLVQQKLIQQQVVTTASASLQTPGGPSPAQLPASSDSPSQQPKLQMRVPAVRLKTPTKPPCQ
UniProt P42227: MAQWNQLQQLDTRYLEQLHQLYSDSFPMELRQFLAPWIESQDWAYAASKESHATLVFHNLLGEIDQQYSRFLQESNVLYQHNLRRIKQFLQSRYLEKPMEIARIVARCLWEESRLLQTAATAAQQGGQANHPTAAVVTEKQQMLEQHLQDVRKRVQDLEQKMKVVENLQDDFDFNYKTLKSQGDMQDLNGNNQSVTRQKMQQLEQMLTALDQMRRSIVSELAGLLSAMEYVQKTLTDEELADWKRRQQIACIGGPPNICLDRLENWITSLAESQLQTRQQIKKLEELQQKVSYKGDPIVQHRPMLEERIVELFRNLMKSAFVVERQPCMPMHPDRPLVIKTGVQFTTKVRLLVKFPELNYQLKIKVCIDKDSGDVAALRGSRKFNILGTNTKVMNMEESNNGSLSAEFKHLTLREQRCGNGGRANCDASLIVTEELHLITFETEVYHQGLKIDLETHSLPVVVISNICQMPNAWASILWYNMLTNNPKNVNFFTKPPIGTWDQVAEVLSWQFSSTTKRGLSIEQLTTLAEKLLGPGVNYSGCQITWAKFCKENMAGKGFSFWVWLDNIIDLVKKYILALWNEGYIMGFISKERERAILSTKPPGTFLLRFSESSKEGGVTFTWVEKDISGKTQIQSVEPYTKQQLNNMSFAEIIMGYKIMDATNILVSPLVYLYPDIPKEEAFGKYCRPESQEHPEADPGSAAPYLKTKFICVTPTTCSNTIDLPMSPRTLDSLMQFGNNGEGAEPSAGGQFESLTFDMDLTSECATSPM

[2] = biological target: T1, myc-tagged BirA* fusion of IRF9 (mouse); assay: proximity labelling; BioID in Raw 264.7 cells expressing doxycycline-induced myc-BirA* fusions, 50 µM biotin 18 h; resting cells and cells treated 2 h with IFN-β or IFN-γ (also 18 h IFN-β); streptavidin affinity purification, targeted LC-MS (PRM), normalised to myc-BirA* or NLS-BirA* control
[3] = biological target: T2, myc-tagged BirA* fusion of STAT1 (mouse) (UniProt P42225); assay: as above
T2 sequence: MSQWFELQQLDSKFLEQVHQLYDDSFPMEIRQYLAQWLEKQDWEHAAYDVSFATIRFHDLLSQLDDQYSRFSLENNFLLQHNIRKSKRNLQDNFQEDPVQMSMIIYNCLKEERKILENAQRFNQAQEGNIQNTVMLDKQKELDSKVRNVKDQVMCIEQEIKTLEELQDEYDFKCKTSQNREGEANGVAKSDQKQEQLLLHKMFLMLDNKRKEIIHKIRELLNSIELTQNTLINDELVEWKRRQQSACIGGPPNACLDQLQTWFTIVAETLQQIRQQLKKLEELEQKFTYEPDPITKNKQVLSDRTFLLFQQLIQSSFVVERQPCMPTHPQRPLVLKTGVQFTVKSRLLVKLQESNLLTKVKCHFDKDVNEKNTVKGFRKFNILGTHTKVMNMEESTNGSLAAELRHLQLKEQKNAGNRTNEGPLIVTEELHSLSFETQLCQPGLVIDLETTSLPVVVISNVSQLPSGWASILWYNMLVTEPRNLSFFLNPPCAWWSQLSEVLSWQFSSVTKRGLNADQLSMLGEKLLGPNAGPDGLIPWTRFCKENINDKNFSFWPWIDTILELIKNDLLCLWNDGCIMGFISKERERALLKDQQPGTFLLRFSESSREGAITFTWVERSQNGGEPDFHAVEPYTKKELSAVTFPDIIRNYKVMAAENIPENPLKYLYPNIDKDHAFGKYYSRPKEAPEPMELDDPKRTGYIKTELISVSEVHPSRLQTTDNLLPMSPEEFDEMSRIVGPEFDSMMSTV

[4] = biological target: myc-tagged BirA* fusion of STAT2 (mouse) (UniProt Q9WVL2); assay: as above
[5] = biological target: myc-tagged BirA* fusion of STAT2 (mouse) (UniProt Q9WVL2); assay: as above; remark: listed apart in the source

- binding [1]: binds
Molecule: EP400, a subunit of the Tip60/NuA4 chromatin remodeling complex (from UniProt Q8CHI8 1-3072)

- binding [2]: no binding
- binding [3]: binds
- binding [4]: no binding
Molecule: STAT3, endogenous (from UniProt P42227 1-770)

- binding [5]: binds
B1: interferon regulatory factor 9 (IRF9), endogenous (protein, UniProt Q61179 1-399)
chain: T1 sequence

Reference: publication PMC6606597
